Taken from: PubChem BioAssay AID504764 (Drosophila RNAi Screening Center, 2011)
Test: 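Genes whose knock-down alters Notch-dependent transcription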 (primary screen). Cell system: Drosophila Kc167 cells. Reagent: long dsRNA against Drosophila genes. Time to read-out: about 5 days (4 days dsRNA, then 24 h after transfection). Challenge: transfection of constitutively active membrane-tethered Notch lacking the extracellular domain, read 24 h later. Measured: 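Light from a Notch-responsive E(spl)m3 luciferase reporter under active Notch, with control-promoter and no-Notch reporter wells to normalise; raw counts from paired wells a and b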. Scale: induced reporter light, run 1, well a and induced reporter light, run 1, well b: higher = more light from the Notch target reporter with active Notch; control promoter light, run 1, well a and control promoter light, run 1, well b: higher = more light from the viral control promoter (cell number, transfection, viability); uninduced reporter light, run 1, well a: higher = more light from the Notch target reporter without active Notch. Active means: 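Wells with low control signal or poorly matching duplicates excluded; duplicates averaged; per source plate, z beyond ±2 for induced/control log2 ratio or beyond ±1.8 for induced/uninduced marks a hit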. Meaning of the calls: active = modifier hit (raised or lowered Notch signal); inactive = not a hit.
The deposit covers about 22,000 reagents; shown is an unselected part of those that have a named target and a result. In the full data, 403 (1.9%) got an active call. 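Unnormalised raw counts per well; ratio z-scores behind the hit calls and whether each hit raises or lowers signal are not deposited.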 Names joined by + are all predicted targets of the reagent. Not stated in the record: the amount of reagent.

| target | DRSC id | induced reporter light, run 1, well a | induced reporter light, run 1, well b | control promoter light, run 1, well a | control promoter light, run 1, well b | uninduced reporter light, run 1, well a | Call |
| --- | --- | --- | --- | --- | --- | --- | --- |
| Or98a | DRSC16774 | 1.27e5 | 1.33e5 | 2.12e5 | 2.07e5 | 15140 | inactive |
| eIF4E7 | DRSC17782 | 99670 | 1.02e5 | 2.28e5 | 1.90e5 | 7895 | inactive |
| eIF4E7 | DRSC18623 | 1.02e5 | 93770 | 1.69e5 | 1.86e5 | 8655 | inactive |
| CG32450 | DRSC11546 | 2.56e5 | 2.34e5 | 2.98e5 | 3.18e5 | 20280 | inactive |
| CG9915 | DRSC21565 | – | – | – | – | – | inactive |
| CG31676 | DRSC02387 | 63125 | 51180 | 64225 | 46400 | 2865 | inactive |
| ATPsynepsilonL | DRSC14548 | 77480 | 1.12e5 | 1.02e5 | 81045 | 2930 | inactive |
| Ifrd1 | DRSC00415 | 3.16e5 | 2.21e5 | 3.31e5 | 2.82e5 | 14590 | inactive |
| Ifrd1 | DRSC00566 | 1.76e5 | 2.14e5 | 2.61e5 | 2.56e5 | 12625 | inactive |
| Ass + CG31286 | DRSC12493 | 1.08e5 | 1.12e5 | 1.08e5 | 83085 | 7875 | inactive |
| qtc | DRSC02364 | 1.82e5 | 1.81e5 | 2.07e5 | 2.07e5 | 17020 | inactive |
| qtc | DRSC02365 | 1.08e5 | 89690 | 1.06e5 | 90310 | 7030 | inactive |

An excerpt from above, showing only “induced reporter light, run 1, well a”:
ATPsynepsilonL [DRSC14548]: 77480
Ifrd1 [DRSC00415]: 3.16e5

Further reagents:
| target | DRSC id | induced reporter light, run 1, well a | induced reporter light, run 1, well b | control promoter light, run 1, well a | control promoter light, run 1, well b | uninduced reporter light, run 1, well a | Call |
| --- | --- | --- | --- | --- | --- | --- | --- |
| CG13003 | DRSC19522 | 1.12e5 | 91765 | 1.46e5 | 1.14e5 | 14300 | inactive |
| CG30349 | DRSC06421 | 1.70e5 | 1.92e5 | 1.73e5 | 1.73e5 | 13330 | inactive |
| CG30349 | DRSC06839 | 95580 | 87905 | 99670 | 1.00e5 | 6365 | inactive |
| CG4793 | DRSC01966 | 1.05e5 | 1.34e5 | 1.31e5 | 1.44e5 | 9490 | inactive |
| RFeSP | DRSC00702 | 1.17e5 | 1.45e5 | 99880 | 78295 | 8755 | inactive |
| cocoon | DRSC10916 | 1.35e5 | 1.17e5 | 2.36e5 | 2.15e5 | 7265 | inactive |
| CG4116 | DRSC18348 | 67320 | 93090 | 1.16e5 | 1.47e5 | 6415 | inactive |
| CG14380 | DRSC14840 | 2.14e5 | 2.26e5 | 1.98e5 | 2.01e5 | 14770 | inactive |
